We go through 5 molecules from US20160244491A1.

Amino acid sequences for entries named in this document (tags omitted). A change or cut given only in a name is not applied to a line headed by its entry.
UniProt P06756: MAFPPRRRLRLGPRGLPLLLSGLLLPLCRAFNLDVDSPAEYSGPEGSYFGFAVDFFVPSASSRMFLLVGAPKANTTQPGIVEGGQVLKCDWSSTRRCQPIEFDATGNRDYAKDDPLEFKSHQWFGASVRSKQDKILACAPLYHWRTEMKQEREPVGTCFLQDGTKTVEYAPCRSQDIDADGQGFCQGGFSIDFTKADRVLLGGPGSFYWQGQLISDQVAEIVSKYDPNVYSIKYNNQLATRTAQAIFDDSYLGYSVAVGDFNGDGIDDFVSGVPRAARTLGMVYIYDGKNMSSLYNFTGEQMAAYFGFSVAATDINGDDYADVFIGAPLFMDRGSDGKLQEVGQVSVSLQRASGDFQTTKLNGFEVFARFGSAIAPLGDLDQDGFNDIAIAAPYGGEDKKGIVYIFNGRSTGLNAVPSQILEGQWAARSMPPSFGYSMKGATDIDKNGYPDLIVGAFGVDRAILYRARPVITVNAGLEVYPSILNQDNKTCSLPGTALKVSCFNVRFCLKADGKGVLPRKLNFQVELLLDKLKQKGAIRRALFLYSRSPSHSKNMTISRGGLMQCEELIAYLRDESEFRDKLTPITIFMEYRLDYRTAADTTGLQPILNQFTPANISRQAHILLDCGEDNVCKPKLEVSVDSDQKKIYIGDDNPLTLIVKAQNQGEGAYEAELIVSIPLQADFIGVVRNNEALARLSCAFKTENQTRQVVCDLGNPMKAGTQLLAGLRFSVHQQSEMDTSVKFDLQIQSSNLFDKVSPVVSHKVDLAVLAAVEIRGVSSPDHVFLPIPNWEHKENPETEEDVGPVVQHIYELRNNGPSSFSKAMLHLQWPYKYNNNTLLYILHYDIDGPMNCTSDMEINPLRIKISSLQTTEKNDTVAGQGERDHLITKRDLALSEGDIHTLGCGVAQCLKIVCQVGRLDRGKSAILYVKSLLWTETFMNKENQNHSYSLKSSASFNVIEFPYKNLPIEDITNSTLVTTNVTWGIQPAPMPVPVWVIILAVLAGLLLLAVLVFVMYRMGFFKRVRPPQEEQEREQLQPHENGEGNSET
UniProt P08648: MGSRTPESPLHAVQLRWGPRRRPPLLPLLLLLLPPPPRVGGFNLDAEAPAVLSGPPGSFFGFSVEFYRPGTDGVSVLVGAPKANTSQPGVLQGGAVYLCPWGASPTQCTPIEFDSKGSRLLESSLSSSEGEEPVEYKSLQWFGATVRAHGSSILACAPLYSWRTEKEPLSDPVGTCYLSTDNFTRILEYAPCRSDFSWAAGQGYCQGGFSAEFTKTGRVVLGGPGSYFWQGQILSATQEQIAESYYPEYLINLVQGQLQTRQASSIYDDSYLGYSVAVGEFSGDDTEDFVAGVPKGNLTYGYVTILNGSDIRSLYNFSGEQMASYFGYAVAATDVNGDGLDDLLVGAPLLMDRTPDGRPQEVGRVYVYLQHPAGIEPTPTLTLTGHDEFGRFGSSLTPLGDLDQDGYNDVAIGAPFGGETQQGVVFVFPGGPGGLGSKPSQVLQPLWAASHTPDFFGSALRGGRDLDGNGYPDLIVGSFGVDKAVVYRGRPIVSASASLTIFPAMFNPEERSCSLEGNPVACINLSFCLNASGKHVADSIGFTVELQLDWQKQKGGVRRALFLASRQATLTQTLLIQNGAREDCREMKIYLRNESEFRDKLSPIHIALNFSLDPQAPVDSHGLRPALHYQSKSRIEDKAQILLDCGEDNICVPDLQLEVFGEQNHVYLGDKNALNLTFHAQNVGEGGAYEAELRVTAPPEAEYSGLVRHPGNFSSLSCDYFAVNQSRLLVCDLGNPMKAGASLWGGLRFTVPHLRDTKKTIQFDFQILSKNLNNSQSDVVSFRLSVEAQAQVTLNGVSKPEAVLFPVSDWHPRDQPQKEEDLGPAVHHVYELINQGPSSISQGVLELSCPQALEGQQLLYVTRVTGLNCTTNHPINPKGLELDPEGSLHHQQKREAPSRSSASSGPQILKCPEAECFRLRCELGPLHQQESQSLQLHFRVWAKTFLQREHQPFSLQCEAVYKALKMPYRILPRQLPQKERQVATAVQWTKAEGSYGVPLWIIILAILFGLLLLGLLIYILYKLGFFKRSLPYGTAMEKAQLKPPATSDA

One experiment concerns the target Integrin αVβ3 (UniProt P06756). Description: ELISA on coated integrin αVβ3. In general terms: ELISA stands for enzyme-linked immunosorbent assay.
The next experiment deals with Integrin α5β1 (UniProt P08648). Description: ELISA on coated integrin α5β1.

Results are given in words; binding and its absence hold for the method and conditions named. Some binding calls cover weakened binding; strength is not graded here.

B1: 225-460 K423Q (ligand)
chain: TTPFLQLNEIRNVKHDGIPAECTTIYNRGEHTSGMYAIRPSNSQVFHVYCDVISGSPWTLIQHRIDGSQNFNETWENYKYGFGRLDGEFWLGLEKIYSIVKQSNYVLRIELEDWKDNKHYIEYSFYLGNHETNYTLHLVAITGNVPNAIPENKDLVFSTWDHKAKGHFNCPEGYSGGWWWHDECGENNLNGKYNKPRAQSKPERRRGLSWKSQNGRLYSIKSTKMLIHPTDSESFE
As for B1, the binding result in the experiment with Integrin αVβ3 and with Integrin α5β1 was “binds” each time.

B2: 228-460 K423Q (ligand)
chain: FLQLNEIRNVKHDGIPAECTTIYNRGEHTSGMYAIRPSNSQVFHVYCDVISGSPWTLIQHRIDGSQNFNETWENYKYGFGRLDGEFWLGLEKIYSIVKQSNYVLRIELEDWKDNKHYIEYSFYLGNHETNYTLHLVAITGNVPNAIPENKDLVFSTWDHKAKGHFNCPEGYSGGWWWHDECGENNLNGKYNKPRAQSKPERRRGLSWKSQNGRLYSIKSTKMLIHPTDSESFE
Consider B2, for which the binding entry in the experiment with Integrin αVβ3 and in the experiment with Integrin α5β1 was “binds” throughout.

B3: 242-460 K423Q (ligand)
chain: IPAECTTIYNRGEHTSGMYAIRPSNSQVFHVYCDVISGSPWTLIQHRIDGSQNFNETWENYKYGFGRLDGEFWLGLEKIYSIVKQSNYVLRIELEDWKDNKHYIEYSFYLGNHETNYTLHLVAITGNVPNAIPENKDLVFSTWDHKAKGHFNCPEGYSGGWWWHDECGENNLNGKYNKPRAQSKPERRRGLSWKSQNGRLYSIKSTKMLIHPTDSESFE
As to B3, the binding entry with Integrin αVβ3 and in the experiment with Integrin α5β1 was “binds” in each case.

B4: 241-460 K423Q (ligand)
chain: GIPAECTTIYNRGEHTSGMYAIRPSNSQVFHVYCDVISGSPWTLIQHRIDGSQNFNETWENYKYGFGRLDGEFWLGLEKIYSIVKQSNYVLRIELEDWKDNKHYIEYSFYLGNHETNYTLHLVAITGNVPNAIPENKDLVFSTWDHKAKGHFNCPEGYSGGWWWHDECGENNLNGKYNKPRAQSKPERRRGLSWKSQNGRLYSIKSTKMLIHPTDSESFE
B4: the binding result with Integrin αVβ3 and with Integrin α5β1 was “binds” throughout.

B5: 233-460 K423Q (ligand)
chain: EIRNVKHDGIPAECTTIYNRGEHTSGMYAIRPSNSQVFHVYCDVISGSPWTLIQHRIDGSQNFNETWENYKYGFGRLDGEFWLGLEKIYSIVKQSNYVLRIELEDWKDNKHYIEYSFYLGNHETNYTLHLVAITGNVPNAIPENKDLVFSTWDHKAKGHFNCPEGYSGGWWWHDECGENNLNGKYNKPRAQSKPERRRGLSWKSQNGRLYSIKSTKMLIHPTDSESFE
Consider B5, for which the binding entry in the experiment with Integrin αVβ3 and with Integrin α5β1 was “binds” throughout.
